Values from PubChem BioAssay AID1259331 (Drosophila RNAi Screening Center, 2017).

Purpose: 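Knock-downs that alter ATP level after a high zinc chloride dose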 (primary screen)
Cells: Drosophila S2R+ cells
Reagents: long dsRNA against Drosophila genes
Timing: 5 days (4 days knock-down, then 1 day zinc)
Challenge: zinc chloride at 15 mM final level for 1 day
Measured: 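Luminescent ATP assay standing in for viability; Z score is the mean over three replicate plates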
Scale: mean Z score: higher = more ATP than other wells, better survival under zinc; ATP luminescence: higher = more ATP, more viable cells
Rule for the call: 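a reagent is called a hit when its Z score is above 1.5 or below -1.5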
Calls: active = hit, ATP up or down; inactive = not a hit
The whole screen tested about 3,100 reagents; this is a random part of them. 126 of them (4.1%) were called active. 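Calls are per reagent; zinc was so toxic that few knock-downs lowered ATP further, so most hits raise ATP.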 Raw values are not corrected between plates. Not given: the amount of reagent.

no.	predicted target	amplicon	mean Z score	ATP luminescence, replicate 1	ATP luminescence, replicate 2	activity call
1	CG3078 (GeneID 31211)	DRSC39707	-0.888	47686	47223	inactive
2	CG3078 (GeneID 31211)	DRSC39834	-0.642	45881	48509	inactive
3	CG34011 (GeneID 3885619)	DRSC00888	0.0531	44669	41668	inactive
4	CG34011 (GeneID 3885619)	DRSC39571	-0.436	60409	48427	inactive
5	Grl36a (GeneID 170887)	DRSC21748	-0.0116	46811	44360	inactive
6	jagn (GeneID 40714)	DRSC12152	-0.504	27868	28468	inactive
7	jagn (GeneID 40714)	DRSC39810	0.351	62844	59397	inactive
8	CG31141 (GeneID 318605)	DRSC13646	-0.152	69361	63237	inactive
9	CG31141 (GeneID 318605)	DRSC29508	0.121	60872	65691	inactive
10	CCHa1-R (GeneID 37004)	DRSC06456	-0.0243	42193	43297	inactive
11	CCHa1-R (GeneID 37004)	DRSC06715	-0.428	68023	63531	inactive
12	CG13575 (GeneID 37883)	DRSC22851	0.3	50189	52778	inactive
13	CG13575 (GeneID 37883)	DRSC39524	0.682	62981	56551	inactive
14	Tsp42A (GeneID 35515)	DRSC04862	0.339	1.02e5	78187	inactive
15	Tsp42A (GeneID 35515)	DRSC39899	-0.372	51252	55659	inactive

2 entries from above, showing only “ATP luminescence, replicate 1”.
CG13575 (GeneID 37883) [DRSC39524] = 62981
Tsp42A (GeneID 35515) [DRSC04862] = 1.02e5

Further results:
no.	predicted target	amplicon	mean Z score	ATP luminescence, replicate 1	ATP luminescence, replicate 2	activity call
16	Gr59d (GeneID 117343)	DRSC22553	0.352	49383	53121	inactive
17	Gr59d (GeneID 117343)	DRSC39897	-0.196	57035	61935	inactive
18	smog (GeneID 33690)	DRSC00334	0.608	59071	49572	inactive
19	smog (GeneID 33690)	DRSC23053	0.623	58986	53721	inactive
20	smog (GeneID 33690)	DRSC27223	0.127	62440	54973	inactive
21	CG5850 (GeneID 34327)	DRSC02905	0.209	59706	58608	inactive
22	CG5850 (GeneID 34327)	DRSC39491	-0.31	44634	46228	inactive
23	Gr39b (GeneID 117347)	DRSC26464	0.0103	64096	58040	inactive
24	Gr39b (GeneID 117347)	DRSC39892	-0.11	62405	57374	inactive
25	CG7272 (GeneID 39670)	DRSC10795	0.217	77697	70166	inactive
26	CG7272 (GeneID 39670)	DRSC39569	-0.0865	60718	56088	inactive
27	Tsp42Ef (GeneID 35615)	DRSC06191	-0.777	73597	61089	inactive
28	Ir7e (GeneID 7354417)	DRSC18011	-0.0065	49846	38753	inactive
